Results published in article PMC2809091.
These are yes or no findings as the source states them, for the method shown.

Amino acid sequences for entries named in this document (tags omitted).
UniProt P69949: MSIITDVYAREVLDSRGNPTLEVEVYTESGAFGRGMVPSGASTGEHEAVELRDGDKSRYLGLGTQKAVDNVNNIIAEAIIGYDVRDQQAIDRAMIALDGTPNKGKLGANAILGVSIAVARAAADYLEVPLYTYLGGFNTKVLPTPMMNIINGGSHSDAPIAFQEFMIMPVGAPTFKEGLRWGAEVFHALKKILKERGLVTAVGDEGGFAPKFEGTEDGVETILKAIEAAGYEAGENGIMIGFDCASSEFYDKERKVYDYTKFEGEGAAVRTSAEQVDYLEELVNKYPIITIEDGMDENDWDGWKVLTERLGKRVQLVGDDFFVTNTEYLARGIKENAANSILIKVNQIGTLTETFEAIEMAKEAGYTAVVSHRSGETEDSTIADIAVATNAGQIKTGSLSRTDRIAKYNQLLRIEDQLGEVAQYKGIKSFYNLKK

Target: wild type octameric enolase from S. pyogenes (S. pyogenes) (UniProt P69949)
Test: AUC; sedimentation velocity, 15°C; 2.7 µM enolase incubated 18 h at 15°C in TME with NaClO4 (up to 0.4 M); octamer to monomers; both purified

Substance: wild type octameric enolase from S. pyogenes (from UniProt P69949 1-435) (enzyme)
- binding: no binding (condition: with 0.4 M NaClO4)
